{"sequences": {"note": "The chains behind the UniProt entries cited, without tags or fusion partners. Where a name states a change or a piece, a line headed by the entry shows the natural chain unless it says otherwise.", "UniProt Q24114": "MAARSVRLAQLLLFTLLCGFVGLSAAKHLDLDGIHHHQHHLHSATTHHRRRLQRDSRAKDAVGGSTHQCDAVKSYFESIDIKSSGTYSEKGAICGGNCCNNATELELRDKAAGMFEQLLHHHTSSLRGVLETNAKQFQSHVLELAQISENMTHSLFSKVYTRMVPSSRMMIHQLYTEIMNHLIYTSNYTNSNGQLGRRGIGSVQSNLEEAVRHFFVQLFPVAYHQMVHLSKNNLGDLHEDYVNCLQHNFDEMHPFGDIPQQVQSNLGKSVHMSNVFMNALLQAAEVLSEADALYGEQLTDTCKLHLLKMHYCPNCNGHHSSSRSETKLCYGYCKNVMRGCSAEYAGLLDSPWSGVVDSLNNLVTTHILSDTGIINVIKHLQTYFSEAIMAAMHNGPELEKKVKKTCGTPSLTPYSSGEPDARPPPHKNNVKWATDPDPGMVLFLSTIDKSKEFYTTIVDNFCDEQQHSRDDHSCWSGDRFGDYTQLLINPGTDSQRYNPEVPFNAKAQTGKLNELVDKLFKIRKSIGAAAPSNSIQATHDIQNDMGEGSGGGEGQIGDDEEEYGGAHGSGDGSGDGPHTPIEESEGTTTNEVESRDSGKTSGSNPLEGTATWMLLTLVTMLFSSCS"}, "source": "paper doi:10.1101/2021.03.11.434947", "target": "T1, Nord-HA (Drosophila) (UniProt Q9W192)", "T1 sequence": "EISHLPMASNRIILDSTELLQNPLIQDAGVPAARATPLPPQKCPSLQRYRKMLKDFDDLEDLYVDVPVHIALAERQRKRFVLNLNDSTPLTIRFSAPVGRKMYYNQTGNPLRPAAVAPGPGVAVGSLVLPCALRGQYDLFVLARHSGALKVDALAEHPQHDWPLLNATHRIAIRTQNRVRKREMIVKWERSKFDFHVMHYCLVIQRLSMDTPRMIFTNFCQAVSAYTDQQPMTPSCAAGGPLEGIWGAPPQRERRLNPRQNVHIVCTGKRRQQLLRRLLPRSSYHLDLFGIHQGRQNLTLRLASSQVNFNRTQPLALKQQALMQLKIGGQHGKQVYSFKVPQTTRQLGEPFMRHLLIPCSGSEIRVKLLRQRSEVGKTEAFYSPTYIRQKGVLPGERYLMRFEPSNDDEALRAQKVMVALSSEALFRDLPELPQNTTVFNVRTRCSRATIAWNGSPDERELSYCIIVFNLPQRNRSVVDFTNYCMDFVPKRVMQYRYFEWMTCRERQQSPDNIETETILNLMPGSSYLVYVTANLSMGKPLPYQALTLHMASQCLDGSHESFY", "test": "co-IP", "note": "Results are given in words; binding and its absence hold for the method and conditions named. Binding seen in cells or lysates may run through a third protein. Binding calls can cover weak binding; strength is not graded here. Where a sequence is shown, tags or fusion partners need not be part of it."}
{"substance": "Dally^ΔGAG-Myc (from UniProt Q24114)", "values": [{"measurement": "binding", "result": "binds"}]}
